# Reference: PubChem BioAssay AID1259254 (NCATS, 2017)
# Assay: 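Gene knock-downs that lead to re-replication, shown by excess G2 DNA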 (primary screen)
# Cells: human HCT116 colorectal cancer cells
# Reagent: single siRNA against human genes
# Timing: 3 days
# Measured: 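Nuclei stained with Hoechst and imaged; cell-cycle phase assigned by DNA content; G2 share scaled per plate, non-targeting siRNA 0%, GMNN siRNA 100%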
# Reading the numbers: G2 robust z-score and G2 cells, % of GMNN control: higher = more G2 cells, more excess DNA replication; raw share of cells in G2: higher = larger share of cells with G2 DNA content
# Active means: 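Active siRNAs have a G2 robust z of 5 or more median absolute deviations over the median, which in these data means about 38% or higher of GMNN control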
# The deposit covers about 59,000 reagents; below is an unselected part. About 1,550 of all reagents (2.6%) count as active. 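G2 share is only a proxy for re-replication; each gene was hit by three separate siRNAs, and active genes were retested.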 The raw values are shown without normalisation. Unmarked entries are inactive. The numbers tell different reagents against one gene apart. Not stated in the record: the amount of reagent.
Gene,siRNA no.,G2 robust z-score,"G2 cells, % of GMNN control",raw share of cells in G2 (%)
SEC31A,1,-1.5,-7.56,2.02
SEC31A,2,-0.676,-1.79,3.4
SEC31A,3,-0.314,0.757,3.46
GOLGA2,1,-0.894,-3.32,2.14
GOLGA2,2,0.978,9.85,9.46
GOLGA2,3,-0.19,1.63,3.7
AMH,1,-0.575,-1.08,4.35
AMH,2,-0.144,1.96,5.77
AMH,3,4.95,37.8,18.1
CLEC17A,1,-1.16,-5.18,2
CLEC17A,2,0.927,9.49,7.53
CLEC17A,3,0.321,5.22,6.87
CECR2,1,0.0727,3.48,5.18
CECR2,2,0.697,7.87,7.53
CECR2,3,1.16,11.1,6.76
CDC42EP5,1,2.33,19.3,10.3
CDC42EP5,2,-1.19,-5.41,1.24
CDC42EP5,3,-0.347,0.529,3.25
CEP97,1,-1.03,-4.3,2.71
CEP97,2,-0.592,-1.2,4.07
CEP97,3,-0.592,-1.19,2.38
SLC25A41,1,1.64,14.5,10.6
SLC25A41,2,-0.722,-2.11,3.51
SLC25A41,3,4.99,38.1,22.4
TMEM203,1,-0.341,0.565,4.32
TMEM203,2,-0.745,-2.27,2.65
TMEM203,3,-0.219,1.43,2.24
EEFSEC,1,1.06,10.5,8.02
EEFSEC,2,2.14,18,10.7
EEFSEC,3,0.635,7.43,8.72

Targets listed so far whose target name starts with G or g (3):
Gene,siRNA no.,G2 robust z-score,"G2 cells, % of GMNN control",raw share of cells in G2 (%)
GOLGA2,1,-0.894,-3.32,2.14
GOLGA2,2,0.978,9.85,9.46
GOLGA2,3,-0.19,1.63,3.7
